Test results from doi:10.1101/2025.01.16.633226.
For at least one entry, the source does not settle the construct or the ends of the probe. At least one verdict was read from the data and is not stated in words by the source.

Protein sequences, listed by entry. Tags and fused reporters are not part of them. Residues count along the entry.
UniProt Q9BRS8, 70-295: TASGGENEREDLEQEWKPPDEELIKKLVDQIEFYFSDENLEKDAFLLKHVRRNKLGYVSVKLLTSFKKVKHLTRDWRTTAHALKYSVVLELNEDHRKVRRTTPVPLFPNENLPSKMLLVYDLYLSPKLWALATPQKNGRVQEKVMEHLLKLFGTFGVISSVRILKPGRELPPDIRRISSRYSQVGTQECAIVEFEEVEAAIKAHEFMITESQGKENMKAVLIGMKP

Target: LARP6 (70-295) (UniProt Q9BRS8)
Test: TR-FRET
Conditions: labeled probe; residues 70-295

Q: Does “CCACAAAGAGUCUACAUGUCUAGGGUCUAGACAUGUUCAGCUUUGUGG [DIG-A1 (COL1A1 5'SL)]” bind?
A: Result: binds
